This is an account of results in PubChem BioAssay AID2685 (National Center for Advancing Translational Sciences (NCATS), 2010).

Some of the results follow. Further columns of the screen follow, without active or inactive calls. Compounds called inactive in the main read-out are mostly missing here. Words in brackets tell the shape of the fitted curve; partial curves, single points and poor fits give uncertain potencies.

The test is described as follows: qHTS Assay for Lipid Storage Modulators in Drosophila S3 Cells.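 As to cell number change: cells counted by Cell Tracker Red CMTPX staining in the red channel.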 The note with it: BODIPY lipid droplet fluorescence, 18-24 h; for cell number change: measured here: cell count max response, cells fed with added oleic acid. Put shortly:
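Laser-scanning cytometry quantifies lipid droplet accumulation (500–530 nm total intensity; droplet/cell object ratio) in oleic acid-fed (400 uM added) Drosophila S3 cells treated with a concentration series. 20 uM Triacsin C defined 100% inhibition.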
On the technique in general: Quantitative high-throughput screening tests each substance at several concentrations.

Where [1] appears, read: measured here: lipid fluorescence (Fed channel) AC50, cells fed with added oleic acid.
Setting [2] is: measured here: cell number channel AC50, cells fed with added oleic acid.

For `Cn1c(N)c(C(=O)COC(=O)C2CCC(C(C)(C)C)CC2)c(=O)n(C)c1=O` (configuration not stated), the cell number change amounted to 13.7%. For `CC(=O)Nc1ccc(S(=O)(=O)Oc2ccccc2N2CCCCC2)cc1`, the cell number change is 6.96%. Take `COc1ccc(S(=O)(=O)N2CCC(C(=O)NCc3ccccn3)CC2)cc1Cl`: the cell number change is 20.3%. For the same compound, the half-maximal activity concentration (AC50) under setting [1] was 20.6 µM [falling, partial curve]. For the compound `CS(=O)(=O)c1cccc(C(=O)N(CCc2ccccc2)Cc2cccs2)c1`, the cell number change turned out to be 4.05%. Still for that read-out and setting: for `CCCCN1C(=O)/C(=C/C=C2\SCCN2C)SC1=S` the value was -21.7%. With `Cc1cc(-c2n[nH]c(=S)n2/N=C/C=C/c2ccccc2)n[nH]1`, the cell number change came to 9.7%. For the same compound, the AC50 under setting [1] is 16.4 µM [rising, single point]. Take `Cn1c(=O)c2c(nc(N3CCOCC3)n2C)n(C)c1=O`: the cell number change is -20%. Under setting [2], the AC50 was 3.26 µM [falling, single point]. Further, under setting [1], the AC50 is 3.26 µM [falling, partial curve, poor fit].

For `CCOc1ccc(C(Nc2ccc(C)cc2)P2(=O)OCCC(C)O2)cc1` (configuration not stated), the cell number change came to 2.43%.

In the case of `CCCCCCCC(=O)NN=C1CCN(Cc2ccccc2)CC1`, the cell number change was -16.6%. The AC50 under setting [2] is 0.13 µM [falling, full curve, poor fit]. Also, under setting [1], the AC50 is 3.26 µM [falling, full curve, poor fit]. For `CN(Cc1ccccc1)C(=O)COC(=O)c1cc([N+](=O)[O-])ccc1N1CCOCC1`, the cell number change was found to be 33%. Moreover, under setting [2], the AC50 was 18.4 µM [rising, single point]. Besides, the AC50 under setting [1] was 25.9 µM [rising, single point].

For `Cc1cc(C)c(NC(=O)CSc2nnc(CN3CCOCC3)n2C)c(C)c1`, the cell number change is -23.7%. `CCOc1ccc(/C=C/C(=O)OC(C)C(=O)NC2CCCCC2C)cc1OC` (configuration not stated): under setting [1], the AC50 was 14.6 µM [falling, partial curve]. On to `CC1CC(C)CN(C(=O)CN2C(=O)NC3(CCCCCCC3)C2=O)C1` (configuration not stated), for which the cell number change came out at 39.4%. Further, under setting [2], the AC50 was 20.6 µM [rising, single point]. `COc1ccc(OC)c(N2C(=O)[C@@H]3C(c4ccccc4Cl)=NO[C@@H]3C2=O)c1`: the cell number change worked out at 8.64%. Besides, the AC50 under setting [1] was 1.3 µM [falling, full curve, poor fit]. `CC(=O)c1cccc(N(C(=O)CNC(=O)c2ccco2)C(C(=O)NCC2CCCO2)c2ccccc2)c1` (configuration not stated): the cell number change came to 22.1%. Moreover, the AC50 under setting [1] was 0.92 µM [falling, full curve, poor fit]. With `Cc1cccc(C(C(=O)NC2CCCC2)N(C(=O)c2csnn2)C2CC2)c1` (configuration not stated), the cell number change came out at 2.61%. Moreover, the AC50 under setting [1] is 1.03 µM [falling, single point]. With `COc1ccc(-c2c(C)n([O-])c3c([n+]2=O)CCCCC3)cc1`, the cell number change came out at 129%. For the same compound, the AC50 under setting [2] was 0.517 µM [rising, single point]. Besides, the half-maximal activity concentration (AC50) under setting [1] is 29.1 µM [rising, single point]. Take `CC1CN(CCc2ccccc2)c2nc3c(c(=O)n(C)c(=O)n3C)n2C1` (configuration not stated): the cell number change was -17.1%. The AC50 under setting [2] is 6.51 µM [falling, single point]. On to `Cn1cc(Cl)c(C(=O)OCC(=O)Nc2ccccc2)n1`, for which the cell number change worked out at 87.2%. Under setting [1], the AC50 was 6.51 µM [rising, single point]. Turning to `CSc1ccc(S(=O)(=O)N2CCC(C(=O)NC3CC3)CC2)cc1`, the cell number change was 15.8%. Further, the AC50 under setting [1] was 5.62 µM [falling, single point]. `Cc1[nH]c2ccccc2c1C(=O)CN1C(=O)NC2(CCCCCC2)C1=O`: the cell number change was -7.98%. The AC50 under setting [1] is 3.66 µM [rising, single point].

With `Cc1ccc(NC(=O)COCC(=O)Nc2ccc(F)cc2)cc1`, the cell number change is -4.12%. Also, the AC50 under setting [1] is 23.1 µM [falling, single point]. Regarding `COc1ccc(C(=O)Nc2ccc(S(=O)(=O)NC(C)=O)cc2)cc1[N+](=O)[O-]`, the cell number change was -34.9%. Turning to `CCC(c1nnc(SC(C)C(=O)NC2CC2)n1-c1ccc(OC)cc1)N(C)C` (configuration not stated), the cell number change was -2.13%. Further, the AC50 under setting [1] was 0.82 µM [falling, full curve, poor fit]. With `CCN(CC)CCCNC(=O)c1ccc(C)c(NC(=O)C2=C(C)OCCS2)c1`, the cell number change stood at 33.8%. Under setting [2], the AC50 is 0.00461 µM [rising, full curve, poor fit].

Take `CCn1cc(C(=O)NC(C)CCc2ccccc2)c(=O)c2cc(S(=O)(=O)N(C)C)ccc21` (configuration not stated): the cell number change was -8.33%. Moreover, under setting [2], the AC50 was 6.51 µM [falling, single point]. As to `CC(C(=O)N1CCN(Cc2ccc3c(c2)OCO3)CC1)c1ccc([N+](=O)[O-])cc1` (configuration not stated), the cell number change is 33.6%. The concentration at half-maximal activity (AC50) under setting [2] was 6.51 µM [rising, full curve, poor fit]. Also, the half-maximal activity concentration (AC50) under setting [1] is 5.17 µM [rising, partial curve]. In the case of `CC(C)C1C(C#N)=C(N)SC(N)=C1C#N`, the cell number change was -11.2%. Under setting [1], the AC50 is 0.00411 µM [rising, full curve, poor fit]. Take `COCC(=O)Nc1ccccc1C#N`: the cell number change was 3.62%. Besides, under setting [1], the AC50 was 3.26 µM [falling, single point]. With `COc1cc(NC(C)C(=O)N2CC(C)OC(C)C2)cc(OC)c1` (configuration not stated), under setting [2], the AC50 is 2.31 µM [rising, partial curve, poor fit]. For `Cc1cc(C)c(NC(=O)CSc2ccc(-c3ccccn3)nn2)c(C)c1`, the cell number change was 28.2%. The AC50 under setting [1] was 18.4 µM [rising, single point]. On to `COc1ccc(/C=C2\SC(=O)N(CC(=O)Nc3cccc(C)c3)C2=O)cc1O`, for which the cell number change came out at 12.1%. Also, the AC50 under setting [2] is 1.84 µM [falling, partial curve, poor fit]. Take `Cc1nc(C)c(C(=O)N2CCCC(C(=O)c3ccc(Cl)cc3C)C2)s1` (configuration not stated): the cell number change was determined as 5.61%. Also, the AC50 under setting [1] is 18.4 µM [rising, single point]. Consider `Cc1ccccc1CNC(=O)CCc1ccccc1`, for which the cell number change came out at 28.3%. Moreover, under setting [1], the AC50 is 25.9 µM [rising, single point]. Take `CCN(CC(=O)N1CCOCC1)S(=O)(=O)c1ccc(Cl)cc1`: under setting [1], the AC50 was 3.26 µM [falling, single point]. For the compound `CC(C)(C)C(=O)CSc1nccc(=O)[nH]1`, the cell number change was -6.58%. Under setting [1], the half-maximal activity concentration (AC50) was 6.51 µM [falling, partial curve, poor fit]. Turning to `O=C(O)C(c1ccccc1)N1C(=O)/C(=C\c2ccc(-c3ccccc3Cl)o2)SC1=S` (configuration not stated), the cell number change is -55.9%. Under setting [2], the AC50 was 11.6 µM [falling, partial curve, poor fit]. On to `COc1ccc(Nc2nc(-c3cccnc3)cs2)c(OC)c1`, for which the cell number change was -18.6%. On to `CN(Cc1ccccc1)C(=O)COc1cc(Cl)ccc1Cl`, for which, under setting [1], the AC50 was 32.6 µM [rising, partial curve]. On to `Cc1cc(C)n(-c2ccc(NC(=O)C3CCCCN3C(=O)c3ccc(C)s3)cc2)n1` (configuration not stated), for which the cell number change came out at 11.4%.

Take `Cc1ccc(OCCn2c(C)c(/C=N/n3cnnc3)c3ccccc32)cc1`: the cell number change was -55.5%. For the same compound, under setting [2], the AC50 is 29.1 µM [falling, single point]. Besides, under setting [1], the AC50 was 29.1 µM [falling, single point]. For the compound `COc1ccc(OCC(=O)c2c(O)c3ccccc3oc2=O)cc1`, the cell number change worked out at 6.34%. For the compound `CSc1ncccc1C(=O)NCC(c1cccs1)N1CCOCC1` (configuration not stated), the cell number change turned out to be 0.402%. Take `O=C(CCn1c(=O)oc2ccccc21)NCCC1=CCCCC1`: under setting [1], the half-maximal activity concentration (AC50) is 0.0366 µM [falling, full curve, poor fit]. With `CC(C)(CNC(=O)c1ccc(S(=O)(=O)Nc2ccccc2F)cc1)N1CCOCC1`, the cell number change amounted to 24.1%. In the case of `Cc1cc(C)n2nc(C(=O)OCC(=O)N(C)C3CCS(=O)(=O)C3)nc2n1` (configuration not stated), the cell number change was found to be 2.89%. Also, the AC50 under setting [1] is 0.0231 µM [rising, full curve, poor fit]. Consider `CCC1(CC)Cc2ccccc2-c2nc(NCCCO)[nH]c(=O)c21`, for which the cell number change is -18.1%. Further, the AC50 under setting [1] was 4.11 µM [falling, full curve, poor fit]. For `COc1ccc(CNC(=O)N2CCN(c3ccccc3)CC2)cc1`, the cell number change turned out to be 8.11%. The AC50 under setting [1] was 29.1 µM [falling, single point]. Take `O=C(NC1CCCCC1)C(c1ccc(Cl)cc1)N(C(=O)c1cnccn1)c1ccc2c(c1)OCO2` (configuration not stated): the AC50 under setting [2] was 1.64 µM [rising, partial curve]. In the case of `CCCc1cc2c(cc1NC(=O)c1ccccc1Cl)OCO2`, the cell number change was -1.56%. For the compound `COc1ccc2nc(SCC(=O)NCc3ccccc3)[nH]c2c1`, the cell number change was -37.9%. Besides, the AC50 under setting [2] is 20.6 µM [falling, partial curve].

Take `CCCN1CC(=O)N2C(c3ccccc3)c3[nH]c4ccccc4c3C[C@H]2C1=O` (some centres not stated): the cell number change stood at 29.1%. The AC50 under setting [1] was 29.1 µM [rising, single point]. In the case of `COc1ccc(NC(=O)/C(C#N)=C\c2ccc(-c3cccc(C(=O)O)c3C)o2)cc1`, the cell number change is -7.37%. Same read-out and setting: the figure for `CCOC(=O)C1=C(C)N=C2SC(C)C(=O)N2C1c1ccc(OC(C)=O)c(OC)c1` (configuration not stated) is 27.2%.

With `Cc1nc2ccn(Cc3ccccc3)c(=O)c2cc1C(=O)N1CCN(c2ccc(F)cc2)CC1`, the cell number change came to 8.96%. Under setting [1], the AC50 is 5.8 µM [rising, full curve, poor fit]. With `c1ccc2sc(Sc3ncnc4sccc34)nc2c1`, the cell number change is -19.8%. Further, the AC50 under setting [1] is 18.4 µM [falling, single point].

For the compound `O=C(NCCCN1CCOCC1)c1cc2ccccc2oc1=O`, the cell number change came out at 0.234%. Under setting [1], the AC50 is 0.103 µM [falling, full curve, poor fit]. Consider `N#Cc1ccccc1Sc1ccccc1C(=O)NCC(c1ccco1)N1CCCCC1` (configuration not stated), for which the cell number change was -22.9%. Moreover, the half-maximal activity concentration (AC50) under setting [1] was 16.4 µM [falling, single point]. With `CCN(CC)CCN(Cc1cc2cc3c(cc2[nH]c1=O)OCO3)C(=S)NCCOC`, the cell number change came out at 3.52%. Further, the AC50 under setting [1] was 4.11 µM [rising, partial curve]. With `Cn1nnc2cc(C(=O)NC(C)(C)C)ccc21`, the cell number change was -45.4%. In addition, the AC50 under setting [2] is 29.1 µM [falling, single point]. In addition, under setting [1], the AC50 is 0.58 µM [falling, single point]. For `COc1ccc(NC2CCCN(C(=O)c3cccc(N(C)C)c3)C2)cc1` (configuration not stated), the AC50 under setting [1] is 0.651 µM [rising, full curve, poor fit]. Consider `Cc1cccc(OCC2=N/C(=C\N(C)C)C(=O)O2)c1`, for which the cell number change is -18.6%. Besides, under setting [1], the AC50 is 0.411 µM [rising, full curve, poor fit]. As for `Cc1ccc(NC(=O)Cc2ncc(C(F)(F)F)cc2Cl)cc1Cl`, the cell number change is -11.4%. Under setting [2], the AC50 was 6.51 µM [falling, single point]. Turning to `Cc1c(NC(=O)c2cnn3c(C(F)(F)F)cc(-c4ccco4)nc23)c(=O)n(-c2ccccc2)n1C`, under setting [1], the AC50 was 6.51 µM [rising, single point].

The term AC50 denotes the concentration giving half of the maximal activity seen. The low end stands for greater potency, the high end for weaker potency.
